# Laboratory results published in US20100136005A1.
# Positions count from the first letter of the chain named. Names and notes keep the numbering of the source. These are yes or no findings as the source states them, for the method shown. Sequences can lack the tags named with a protein.
# T1: rhesus CD11a (rhesus) (UniProt H9Z8N3)
# T1 sequence: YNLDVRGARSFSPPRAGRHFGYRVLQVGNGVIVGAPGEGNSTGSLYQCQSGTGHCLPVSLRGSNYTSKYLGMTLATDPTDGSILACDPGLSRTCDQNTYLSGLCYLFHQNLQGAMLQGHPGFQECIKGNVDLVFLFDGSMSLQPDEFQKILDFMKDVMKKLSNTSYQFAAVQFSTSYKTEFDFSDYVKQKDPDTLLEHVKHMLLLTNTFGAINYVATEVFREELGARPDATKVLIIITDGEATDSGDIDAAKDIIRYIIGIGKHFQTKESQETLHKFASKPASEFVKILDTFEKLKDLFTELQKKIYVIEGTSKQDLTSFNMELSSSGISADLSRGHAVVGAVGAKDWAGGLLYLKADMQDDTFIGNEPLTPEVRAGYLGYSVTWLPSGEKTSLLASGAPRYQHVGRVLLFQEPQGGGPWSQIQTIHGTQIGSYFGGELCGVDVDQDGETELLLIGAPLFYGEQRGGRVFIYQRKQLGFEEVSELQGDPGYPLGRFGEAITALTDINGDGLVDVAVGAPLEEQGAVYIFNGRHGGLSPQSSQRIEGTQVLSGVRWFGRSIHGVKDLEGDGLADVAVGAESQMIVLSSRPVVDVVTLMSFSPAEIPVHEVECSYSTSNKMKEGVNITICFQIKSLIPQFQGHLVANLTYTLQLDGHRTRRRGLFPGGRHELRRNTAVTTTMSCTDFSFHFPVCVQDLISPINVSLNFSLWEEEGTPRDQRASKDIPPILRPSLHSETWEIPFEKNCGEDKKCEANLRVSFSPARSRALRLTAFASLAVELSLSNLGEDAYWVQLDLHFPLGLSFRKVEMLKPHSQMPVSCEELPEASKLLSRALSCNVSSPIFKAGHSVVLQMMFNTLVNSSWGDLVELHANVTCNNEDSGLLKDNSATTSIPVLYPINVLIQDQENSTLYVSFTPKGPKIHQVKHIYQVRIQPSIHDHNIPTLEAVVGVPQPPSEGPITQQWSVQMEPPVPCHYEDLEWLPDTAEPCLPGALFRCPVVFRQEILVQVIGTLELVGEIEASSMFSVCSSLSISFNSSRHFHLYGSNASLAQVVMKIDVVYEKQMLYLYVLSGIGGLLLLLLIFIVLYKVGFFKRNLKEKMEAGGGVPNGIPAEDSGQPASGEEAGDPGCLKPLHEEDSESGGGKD
# B1: H3B (antibody, human IgG1, V domains shown)
# VH: EVQLVESGGGLVQPGGSLRLSCAASGYSFTGHWMNWVRQAPGKGLEWVGMIHPSDSETRYNQKFKDRFTISVDKSKNTLYLQMNSLRAEDTAVYYCARGIYFYGAAAFDYWGQGTLVTVSS
# VL: DIQMTQSPSSLSASVGDRVTITCRASKTISKYLAWYQQKPGKAPKLLIYSGSTLQSGVPSRFSGSGSGTDFTLTISSLQPEDFATYYCQQHNEYPLTFGQGTKVEIK
# B2: ThrH100aAla (antibody, human IgG1, V domains shown)
# VH: B1 VH with A106T, A107Y
# VL: B1 VL
# B3: TyrL94Ala (antibody, human IgG1, V domains shown)
# VH: B1 VH with A105T, A106T, A107Y
# VL: DIQMTQSPSSLSASVGDRVTITCRASKTISKYLAWYQQKPGKAPKLLIYSGSTLQSGVPSRFSGSGSGTDFTLTISSLQPEDFATYYCQQHNEAPLTFGQGTKVEIKR
# B4: TrpH33Ala (antibody, human IgG1, V domains shown)
# VH: B1 VH with W33A, A105T, A106T, A107Y
# VL: B1 VL
# B5: L3 (antibody, human IgG1, V domains shown)
# VH: B1 VH with A105T, A106T, A107Y
# VL: B3 VL with N92A, E93A
# B6: ThrH100bAla (antibody, human IgG1, V domains shown)
# VH: B1 VH with A105T, A107Y
# VL: B1 VL
# B7: HisH32Ala (antibody, human IgG1, V domains shown)
# VH: B1 VH with H32A, A105T, A106T, A107Y
# VL: B1 VL
# B8: L2 (antibody, human IgG1, V domains shown)
# VH: B1 VH with A105T, A106T, A107Y
# VL: B3 VL with S50A, S52A, T53A, A94Y
# B9: TyrH100cAla (antibody, human IgG1, V domains shown)
# VH: B1 VH with A105T, A106T
# VL: B1 VL
# B10: TyrH99Ala (antibody, human IgG1, V domains shown)
# VH: B1 VH with Y103A, A105T, A106T, A107Y
# VL: B1 VL
# B11: H1 (antibody, human IgG1, V domains shown)
# VH: B1 VH with S28A, T30A, H32A, A105T, A106T, A107Y
# VL: B1 VL
# B12: TyrH97Ala (antibody, human IgG1, V domains shown)
# VH: B1 VH with Y101A, A105T, A106T, A107Y
# VL: B1 VL
# B13: H2B (antibody, human IgG1, V domains shown)
# VH: B1 VH with D55A, E57A, R59A, A105T, A106T, A107Y
# VL: B1 VL
# B14: SerH28Ala (antibody, human IgG1, V domains shown)
# VH: B1 VH with S28A, A105T, A106T, A107Y
# VL: B1 VL
# B15: HisL91Ala (antibody, human IgG1, V domains shown)
# VH: B1 VH with A105T, A106T, A107Y
# VL: B3 VL with H91A, A94Y
# Biological target: T1, rhesus CD11a (rhesus)
# Assay: condition: greater than 10-fold weaker than HuIgG1 (EC50 45.6 nM); binding to rhesus peripheral blood lymphocytes
row,binding,Binder
1,no binding,B1
2,no binding,B2
3,no binding,B3
4,no binding,B4
5,no binding,B5
6,no binding,B6
7,no binding,B7
8,no binding,B8
9,no binding,B9
10,no binding,B10
11,no binding,B11
12,no binding,B12
13,no binding,B13
14,no binding,B14
15,no binding,B15
